The list shows a part of the results.
Tested on: T1, CTL2-GFP (C. trachomatis L2/434/Bu, GFP-expressing)
T1 construct: L2/434/Bu, GFP-expressing
Design: species or system HeLa; Intracellular C. trachomatis growth in HeLa cells, bulk GFP fluorescence relative to DMSO
Conditions: bulk GFP, single well; 28.5 h, 10 µM; inhibitor

SMILES | % of control remaining [%]
O=C(O)c1cccc(OCc2nnnn2-c2ccc(Br)cc2)c1 [CBK286744] | 144.642
CCOc1cc(NC2CCN(C(=O)C3CCCC(C)(C)C3)CC2)ncn1 (centres unmarked) [CBK305547] | 121.444
COc1ccc(OCC(O)Cn2c(CCCO)nc3ccccc32)cc1 (centres unmarked) [CBK305579] | 118.519
CCc1nc(C)ccc1OCC(O)CNC(C)(C)C (centres unmarked) [CBK019698] | 120.904
Cc1ccc(S(=O)(=O)NC(=O)N2CCCC2)cc1 [CBK001984] | 133.907
Nc1ncnc(NCCc2ccc(S(N)(=O)=O)cc2)c1[N+](=O)[O-] [CBK267320] | 150.97
CC1CCc2c(sc3nc(CN4CCCCC4C)[nH]c(=O)c23)C1 (centres unmarked) [CBK304975] | 142.457
Cn1c(C2CC2)nc2c1CCN(Cc1cc(=O)n(C)c(=O)n1C)C2 [CBK304025] | 97.4822
CC(C(=O)N1CCCCC1)n1sc2ccccc2c1=O (centres unmarked) [CBK116322] | 93.6654
COc1cc(NC(=O)Cn2c(-c3cncs3)nc3ccccc32)cc(OC)c1OC [CBK267640] | 111.403
O=C(O)CCC(=O)CCC(=O)c1ccc(F)cc1 [CBK287191] | 121.304
COc1cccc(CN2CC[C@H]3[C@@H](C2)[C@H](c2ccsc2)CN3C(=O)c2ccccc2)c1 [CBK285616] | 121.674
CN1CCC(N(C)C(=O)NCc2cccnc2)C1 (centres unmarked) [CBK156001] | 122.281
COc1ccc(O)c(C(=O)c2cnn(-c3ccccn3)c2)c1 [CBK295141] | 150.122
CC(=O)NC(=O)c1cccc(Br)c1 [CBK022890] | 111.33
Cc1nn(C(C)CC(=O)NCC2CCN(C(C)C)CC2)c(C)c1C (centres unmarked) [CBK282703] | 131.211
CCNC(=O)c1cnc(-c2ccc(Cl)cc2)c(-c2cccnc2)c1 [CBK037584] | 148.562
CCOC(=O)CCCNC(=O)N(CC)Cc1ccccc1 [CBK155252] | 193.259
O=C(c1csc(-c2ccccc2)n1)N1CCn2nc(C3CC3)cc2C1 [CBK304676] | 119.609
COc1ccc(CN2CCNC(=O)C2CC(=O)O)c(F)c1 (centres unmarked) [CBK270143] | 122.925
CSc1ncc(CNC(=O)Nc2ccc3c(c2)CCC3)n1C [CBK306996] | 120.398
CC(C)n1nccc1NC(=O)CCn1c(C(F)F)cc2cccnc21 [CBK284690] | 89.4899
CC(=O)c1ccc(-c2nccnc2NCCc2ccncc2)s1 [CBK037300] | 169.477
Cc1ccc(NCC2CCN(Cc3cc(=O)n4ccccc4n3)C2)nc1 (centres unmarked) [CBK306334] | 111.266
COc1cccc(Nc2cc(-c3ccc(N4CCOCC4)cc3)ncn2)c1OC [CBK037687] | 220.204
NC(=O)CCCCn1c2c(c3cccc(C(=O)O)c31)CCCCC2 [CBK034088] | 99.5407
Cc1noc(C)c1NC(=O)c1cnccn1 [CBK200390] | 115.163

SMILES | % of control remaining [%]
C=CCn1c(SCC(=O)Nc2cc(Cl)ccc2O)nnc1-c1ccccc1O [CBK269102] | 115.502
Fc1ccc(C2(CCCN3CCN(c4ccncc4)CC3)OCCO2)cc1 [CBK038887] | 100.172
NC(=O)COc1ccccc1OCC(N)=O [CBK261032] | 117.493
C/C(=N\NC(=O)c1ccccc1I)c1cccc(N)c1 [CBK260935] | 100.563
COc1cnc(-c2ccccc2)c(NC(C)=O)n1 [CBK145410] | 100
O=C(O)CCN1CCN(Cc2ccc(Cl)cc2)CC1 [CBK287271] | 128.158
CN(C)c1ccccc1-c1cnc(N2CCOCC2)c2nccn12 [CBK091280] | 135.398
Brc1ccc2nc3c(nc2c1)Nc1nonc1N3 [CBK262414] | 102.113
Cc1ccccc1NS(=O)(=O)c1ccc(OCC(=O)N2CCN(c3cc(Cl)ccc3C)CC2)cc1 [CBK267649] | 117.998
COc1ccc(CCNS(=O)(=O)c2ccc(C3CNC(=O)C3)cc2)cc1OC (centres unmarked) [CBK268352] | 92.6254
CCCCNc1cc(N2CCN(c3cnn(C)c3)C(=O)C2)nc(N)n1 [CBK306260] | 106.519
Cc1cc(/C=C(/C#N)c2nc3ccccc3[nH]2)c(C)n1-c1ccc(N2CCOCC2)cc1 [CBK263792] | 118.677
Nc1ccc(-c2cn3ccnc3c(NCc3ccccc3)n2)cc1 [CBK066592] | 124.695
O=C(Nc1ccc(O)cc1C(=O)O)c1ccc2c(c1)C(=O)N(Cc1ccccc1)C2=O [CBK266540] | 159.219
Cn1ncc2c1CCCN(C(=O)COc1ccc(C(C)(C)C)cc1)C2 [CBK285286] | 99.7629
COc1ccc(-c2ccc(N3CCN(CCN(C)C)CC3)nc2)cc1OC [CBK036818] | 183.859
O=C(O)/C=C\C(=O)Nc1ccc(Cl)c(NC(=O)Cc2ccccc2)c1 [CBK263955] | 137.673
COc1ncc(-c2cnc(N)c(-c3cccc(N(C)C)c3)n2)c(OC)n1 [CBK064017] | 190.926
OC1(c2cccnc2F)CCN(Cc2cc(F)cc(F)c2)CC1 [CBK285375] | 133.766
O=c1[nH]c2ccccc2cc1CNc1ccc(F)cc1F [CBK281933] | 139.534
O=C1NC2(CC3CCC2CC3C(=O)NC2CC2)Oc2ccccc21 (centres unmarked) [CBK284352] | 79.9927
CN(C)c1ccc(-c2nc(-c3cccc(OC(F)(F)F)c3)cnc2N)cc1 [CBK063942] | 188.207
O=C(O)c1ccc(S(=O)(=O)c2ccc3c(c2)C(=O)N(c2cc(C(=O)O)cc(C(=O)O)c2)C3=O)cc1 [CBK262824] | 100
C=CCNc1nccnc1-c1ccc(O)cc1 [CBK036898] | 184.829
CC(C)CNc1nc(SCC(N)=O)nc(N(C)C)n1 [CBK269579] | 109.863
O=C(CC1CCCC1)N1CCCC(c2cc3cccnc3[nH]2)C1 (centres unmarked) [CBK284940] | 107.091
CC1CCCC(C)N1C(=O)Cn1c(=O)n(C)c2ncccc21 (centres unmarked) [CBK282389] | 104.244

Of the compounds above, these have a thiophene ring, fused or not.
SMILES | % of control remaining [%]
CC1CCc2c(sc3nc(CN4CCCCC4C)[nH]c(=O)c23)C1 (centres unmarked) [CBK304975] | 142.457
COc1cccc(CN2CC[C@H]3[C@@H](C2)[C@H](c2ccsc2)CN3C(=O)c2ccccc2)c1 [CBK285616] | 121.674
CC(=O)c1ccc(-c2nccnc2NCCc2ccncc2)s1 [CBK037300] | 169.477

Later entries

SMILES | % of control remaining [%]
Cc1cc(-c2nnc3n2N=C(c2ccccc2)CS3)n[nH]1 [CBK287944] | 172.409
O=C(Nc1nnc[nH]1)c1ccccc1CCc1ccccc1 [CBK268616] | 132.137
CC(C)(C)NS(=O)(=O)c1ccccc1[N+](=O)[O-] [CBK260932] | 109.739
FC(F)(F)c1cccc(CSc2cc(N3CCCC3)ncn2)c1 [CBK107184] | 111.529
Cc1ccc(C(=O)C(C)OC(=O)c2ccc(NC(=O)c3ccccc3)cc2)cc1 (centres unmarked) [CBK264302] | 100
Cc1n[nH]c(NN)c1Cl [CBK260876C] | 110.829
O=C(CSc1nnc(-c2ccncc2)[nH]1)c1ccc(O)cc1O [CBK264353] | 123.933
Cc1nc(=O)c(-c2ccccc2)c(C)n1-c1ccc2cn[nH]c2c1 [CBK288193] | 134.13
Cn1cc(C(=O)NC2CCN(C(=O)c3cccc(C#N)c3)CC2)cn1 [CBK305673] | 125.537
NC(=O)CC[n+]1ccc2ccccc2c1 [CBK022857C] | 115.245
O=C(Nc1ccc2ncccc2c1)c1cccc(F)c1Cl [CBK159800] | 109.661
O=C(c1ccc(F)cc1)[C@H]1CCCN(C(=O)c2cc(C3CC3)n[nH]2)C1 [CBK282410] | 125.385
NC1=NNC2=C(c3ccc(Cl)cc3Cl)NNN12 [CBK093660] | 100
Cc1cc(C)cc(OCc2nnc(SCC(=O)Nc3cc(C(F)(F)F)ccc3Cl)o2)c1 [CBK267890] | 108.116
COc1ccc(/C=N/c2cc(S(=O)(=O)c3ccc(O)c(/N=C/c4ccc(OC)c(O)c4)c3)ccc2O)cc1O [CBK261223] | 106.22
Cn1c(=O)oc2cc(NC(=O)CC3CCN(Cc4cccc(C(F)(F)F)c4)CC3)ccc21 [CBK285953] | 134.262
O=C(CSc1nnc(-c2ccccc2)n1-c1ccccc1)N/N=C/c1coc2ccccc2c1=O [CBK262791] | 103.512
CCN(Cc1ccncc1)C(=O)Nc1ccc2[nH]ccc2c1 [CBK155136] | 127.949
CC(C)[C@H](CO)NC(=O)c1cnc(-c2ccc(Cl)cc2)c(-c2ccco2)c1 [CBK036658] | 85.3994
COc1cccc2c3c([nH]c12)C1(CCN(CCOc2ccccc2)CC1)N(C=O)CC3 [CBK039423] | 65.986
COc1cc(-c2cnc3[nH]c(=O)n(CCc4ccncc4)c3n2)cc(OC)c1OC [CBK064620] | 112.26
CC(C)(C)OC(=O)N1CCC(N(CCC(F)(F)F)Cc2ccc(-c3ccc(S(C)(=O)=O)cc3)nc2)CC1 [CBK167262] | 120.597
Cc1ccccc1CSCC(=O)Nc1ccc(S(=O)(=O)N2CCCCC2)cc1 [CBK264006] | 51.0049
CC(=O)N1CCc2sccc2C1c1ccccc1NC(=O)C1CC1 (centres unmarked) [CBK282903] | 91.9838
O=C(O)c1ccc(CN2C[C@H](O)C[C@H]2c2nc(-c3ccccn3)no2)cc1 [CBK288869] | 123.825
C=CCC1(CC=C)CCN1C(=O)c1cc(-c2ccccn2)n[nH]1 [CBK282448] | 110.788
